Source: paper PMC10603098
No constants are given. Whether binding was seen depends on the method and setting. In cells and extracts the contact can be indirect. A yes stands for co-enrichment or nearness to the bait. Other partners may have been found. For some assays here: A no says only that the protein was not detected with the bait.

By UniProt entry, the sequences of proteins in these tests, tags left out.
UniProt D3ZK93: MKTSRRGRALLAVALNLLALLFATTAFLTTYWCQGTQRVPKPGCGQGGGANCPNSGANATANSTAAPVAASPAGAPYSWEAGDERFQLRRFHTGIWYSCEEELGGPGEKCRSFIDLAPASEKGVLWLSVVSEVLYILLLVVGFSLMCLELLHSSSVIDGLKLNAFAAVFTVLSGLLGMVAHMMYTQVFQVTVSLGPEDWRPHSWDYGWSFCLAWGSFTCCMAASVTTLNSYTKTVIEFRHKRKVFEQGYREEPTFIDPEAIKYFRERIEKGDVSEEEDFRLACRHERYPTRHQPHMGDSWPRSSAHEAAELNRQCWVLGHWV

Each binder was assayed against germ cell-specific gene 1-like protein (GSG1L) (rat (endogenous in rat brain)) (UniProt D3ZK93) (assay: affinity purification with mass spectrometry; two-step APs: WT rat brain membranes solubilised in CL-91; first a target-depleting mixture of anti-GSG1L antibodies, then a mixture of anti-GluA1-4 antibodies, each 2 h on protein A Dynabeads).

| binding | Binder |
| --- | --- |
| binds | leucine-rich repeat transmembrane protein 4 (LRRT4) (protein, UniProt B4F7C5 31-590) QRACPKNCRCDGKIVYCESHAFADIPENISGGSQGLSLRFNSIQKLKSNQFAGLNQLIWLYLDHNYISSVDEDAFQGIRRLKELILSSNKITYLHNKTFHPVPNLRNLDLSYNKLQTLQSEQFKGLRKLIILHLRSNSLKTVPIRVFQDCRNLDFLDLGYNRLRSLSRNAFAGLLKLKELHLEHNQFSKINFAHFPRLFNLRSIYLQWNRIRSVSQGLTWTWSSLHTLDLSGNDIQAIEPGTFKCLPNLQKLNLDSNKLTNVSQETVNAWISLISITLSGNMWECSRSICPLFYWLKNFKGNKESTMICAGPKHIQGEKVSDAVETYNICSDVQVVNTERSHLAPQTPQKPPFFPKPTIFKSDAIPATLEAVSPSPGFQIPGTDHEYEHVSFHKIIAGSVALFLSVAMILLVIYVSWKRYPASMKQLQQHSLMKRRRKKARESERQMNSPLQEYYVDYKPTNSETMDISVNGSGPCTYTISGSRECEMPHHVKPLPYYSYDQPVIGYCQAHQPLHINKAYEAVSIEQDDSPSLELGRDHSFIATIARSAAPAIYLERITN |

These binders were tested against germ cell-specific gene 1-like protein (GSG1L) (rat (endogenous in rat brain)) (UniProt D3ZK93) (assay: affinity purification with mass spectrometry; multi-epitope AP-MS: three polyclonal anti-GSG1L antibodies on protein A Dynabeads, 2 h; membranes of adult (P59) rat brain solubilised in CL-47; GSG1L KO rats as negative control; minimum tnR of 0.25 as indicator of specific interaction).

| binding | Binder |
| --- | --- |
| binds | leucine-rich repeat transmembrane protein 4 (LRRT4) (protein, UniProt B4F7C5 31-590) QRACPKNCRCDGKIVYCESHAFADIPENISGGSQGLSLRFNSIQKLKSNQFAGLNQLIWLYLDHNYISSVDEDAFQGIRRLKELILSSNKITYLHNKTFHPVPNLRNLDLSYNKLQTLQSEQFKGLRKLIILHLRSNSLKTVPIRVFQDCRNLDFLDLGYNRLRSLSRNAFAGLLKLKELHLEHNQFSKINFAHFPRLFNLRSIYLQWNRIRSVSQGLTWTWSSLHTLDLSGNDIQAIEPGTFKCLPNLQKLNLDSNKLTNVSQETVNAWISLISITLSGNMWECSRSICPLFYWLKNFKGNKESTMICAGPKHIQGEKVSDAVETYNICSDVQVVNTERSHLAPQTPQKPPFFPKPTIFKSDAIPATLEAVSPSPGFQIPGTDHEYEHVSFHKIIAGSVALFLSVAMILLVIYVSWKRYPASMKQLQQHSLMKRRRKKARESERQMNSPLQEYYVDYKPTNSETMDISVNGSGPCTYTISGSRECEMPHHVKPLPYYSYDQPVIGYCQAHQPLHINKAYEAVSIEQDDSPSLELGRDHSFIATIARSAAPAIYLERITN |
| binds | transmembrane AMPAR regulatory protein γ8 (TARP γ8) (protein, UniProt Q8VHW5 1-421) MESLKRWNEERGLWCEKGVQVLLTTIGAFAAFGLMTIAISTDYWLYTRALICNTTNLTAGDDGPPHRGGSGSSEKKDPGGLTHSGLWRICCLEGLKRGVCVKINHFPEDTDYDHDSAEYLLRVVRASSIFPILSAILLLLGGVCVAASRVYKSKRNIILGAGILFVAAGLSNIIGVIVYISANAGEPGPKRDEEKKNHYSYGWSFYFGGLSFILAEVIGVLAVNIYIERSREAHCQSRSDLLKAGGGAGGSGGSGPSAILRLPSYRFRYRRRSRSSSRGSSEASPSRDASPGGPGGPGFASTDISMYTLSRDPSKGSVAAGLASAGGGGGGAGVGAYGGAAGAAGGGGTGSERDRGSSAGFLTLHNAFPKEAASGVTVTVTGPPAAPAPAPPAPAAPAPGTLSKEAAASNTNTLNRKTTPV |
| binds | cornichon 2 (CNIH2) (protein, UniProt Q5BJU5 1-160) MAFTFAAFCYMLTLVLCASLIFFVIWHIIAFDELRTDFKNPIDQGNPARARERLKNIERICCLLRKLVVPEYSIHGLFCLMFLCAAEWVTLGLNIPLLFYHLWRYFHRPADGSEVMYDAVSIMNADILNYCQKESWCKLAFYLLSFFYYLYSMVYTLVSF |
| no binding | FRRS1L (protein, UniProt D3ZE85 29-293) SPADDGAGPGGRGPRGRARGDAGADEAVPRHDSSYGTFAGEFYDLRYLSEEGYPFPTAPPVDPFAKIKVEDCGRTKGCFRYGKPGCNAETCDYFLSYRMIGADVEFELSADTDGWVAVGFSSDKKMGGDDVMACVHDDNGRVRIQHFYNVGQWAKEVQRNPARDEEGVFENNRVTCRFKRPVNVPRDETIVDLHLSWYYLFAWGPAIQGSITRHDIDSPPASERVVSIYKYEDIFMPSAAYQTFSSPFCLLLIVALTFYLLMGTP |
| no binding | ABHD6 (protein, UniProt Q5XI64 1-337) MDLDVVNMFVIAGGTLAIPILAFVASFLLWPSALIRIYYWYWRRTLGMQVRYVHHEDYQFCYSFRGRPGHKPSVLMLHGFSAHKDMWLSVVKFLPKNLHLVCVDMPGHEGTTRSSLDDLSIVGQVKRIHQFVECLKLNKKPFHLIGTSMGGNVAGVYAAYYPSDVCSLSLVCPAGLQYSTDNRFVQRLKELEDSAATQKIPLIPSTPEEMSEMLQLCSYVRFKVPQQILQGLVDVRIPHNSFYRKLFLEIVSEKSRYSLHENMDKIKVPTQIIWGKQDQVLDVSGADILAKSITNSQVEVLENCGHSVVMERPRKTAKLVVDFLASVHNPDNNKKLN |
| no binding | CPT1c (protein, UniProt F1LN46 1-801) MAEAHQASSLLSSLSSDGAEVELSSSVWQEIYLSALRSWKRNLWRVWNDFLAGVVPATPLSWLFLFSTIQLACLLQLDPSLGLMEKIKELLPDWGGQHHQLQGLLAAAVFASCLWGTLIFTLHVALRLLLSHHGWLLEPHGTMSSPTKTWLALVRIFSGRHPRLFSFQRALPRQPVPGAQETVRKYLESMRPVLRDDAFDSVVALANDFLRLQAPRLQLYLQLKSWCASNYVSDWWEEFVYLRSRGSLVNSTYYMMDFLYVTPTPLQAARAGNAVHTLLLYRHLLNRQEIPPTLLMGMRPLCSAQYERMFNTTRIPGVEKDYLCHLQDSQHVAVFHQGRFFRVGTHSSNGLLSPRALEQQFQYILDDPSPACPLEEHLAALTAAPRSMWAQVRESVKTHAATALETVEGAAFFVSLDSEPAGLTRENPAASLDTYAHTLLTGQGHDRWFDKSFTLIVFSNGKLGLSVEHSWADCPVAGHLWEFTLATECFQLGYATDGHCKGHPDPALPKPQRLQWDLPKQIQPSISLALRGAKTLSGNIDCHVFPFFHFGKSFIKGCHVSSDSFIQLVLQLAHFRDRGQFCLTYESAMTRLFLEGRTETVRSCTREACQFVRAMENKERTDQQCLALFREAVDKHQALLKAAMSGQGIDRHLFALYIMSRLLHMQSPFLTQVQSQQWLLSTSQIPVQQTHLFDVHNYPDYVSSGGGFGPAHDHGYGVSYIFMGENAISFHISSKQSSTETDSHRLGQHIEDALLDVASLFQAGQQFKRQFTGLGESSGWKYSNLSCKTVDPNIPKSSTNL |
| binds | transmembrane AMPAR regulatory protein γ3 (TARP γ3) (protein, UniProt Q8VHX0 1-315) MRMCDRGIQMLITTVGAFAAFSLMTIAVGTDYWLYSRGVCRTKSTSDNETSRKNEEVMTHSGLWRTCCLEGAFRGVCKKIDHFPEDADYEQDTAEYLLRAVRASSVFPILSVTLLFFGGLCVAASEFHRSRHSVILSAGIFFVSAGLSNIIGIIVYISANAGDPGQRDSKKSYSYGWSFYFGAFSFIIAEIVGVVAVHIYIEKHQQLRARSHSELLKKSTFARLPPYRYRFRRRSSSRSTEPRSRDLSPISKGFHTIPSTDISMFTLSRDPSKLTMGTLLNSDRDHAFLQFHNSTPKEFKESLHNNPANRRTTPV |
